This test has as its target GST-Akt1 (UniProt P31749). The test can be described thus: pull-down.

Sequences of proteins named here, by UniProt entry; tags and fusion partners are left off. A change or cut given only in a name is not applied to a line headed by its entry.
UniProt P31749: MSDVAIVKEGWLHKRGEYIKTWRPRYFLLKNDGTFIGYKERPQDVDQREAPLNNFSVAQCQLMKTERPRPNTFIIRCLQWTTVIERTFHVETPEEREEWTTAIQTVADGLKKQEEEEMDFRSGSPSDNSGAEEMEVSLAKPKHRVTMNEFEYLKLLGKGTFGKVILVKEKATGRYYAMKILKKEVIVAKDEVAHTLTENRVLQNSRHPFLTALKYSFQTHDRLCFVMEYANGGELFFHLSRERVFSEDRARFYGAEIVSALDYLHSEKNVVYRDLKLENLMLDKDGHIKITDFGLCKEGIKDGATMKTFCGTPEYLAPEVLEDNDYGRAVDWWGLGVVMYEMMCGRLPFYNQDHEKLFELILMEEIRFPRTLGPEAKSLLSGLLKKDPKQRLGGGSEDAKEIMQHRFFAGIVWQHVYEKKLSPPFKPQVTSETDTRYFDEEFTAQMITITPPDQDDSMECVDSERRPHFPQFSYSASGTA
UniProt P67775: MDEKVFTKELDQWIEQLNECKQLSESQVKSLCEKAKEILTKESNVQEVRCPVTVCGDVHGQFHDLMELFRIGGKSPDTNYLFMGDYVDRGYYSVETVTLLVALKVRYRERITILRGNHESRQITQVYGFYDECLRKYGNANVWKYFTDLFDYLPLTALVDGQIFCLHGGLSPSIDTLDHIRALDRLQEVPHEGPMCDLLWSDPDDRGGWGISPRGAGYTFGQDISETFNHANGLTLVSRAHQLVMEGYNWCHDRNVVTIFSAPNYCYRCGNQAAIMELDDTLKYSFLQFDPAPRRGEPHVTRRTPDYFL

The source of these data is doi:10.1101/2020.06.09.141986.

No constants are given. Whether binding was seen depends on the method and setting. Binding seen in cells or lysates may run through a third protein. Binding can be weak; no strength is given.

Take Flag-PP2AC (from UniProt P67775): the binding entry is on record as “binds”.
